This experiment addresses T1, Peptide no. 40 (Figure 8A).
T1 sequence (peptide): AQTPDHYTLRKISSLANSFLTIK
Briefly: Ala-scan peptide array of hIL20 74-96 on cellulose; fluorescein-labelled antibody; fluorescence as OD.

Substitutions are numbered along the chain they refer to. No constants are given. Whether binding was seen depends on the method and setting. Some results given as binding are weak or reduced against the parent protein; the word gives no strength.

The record followed here is patent publication US20130039923A1 (Novo Nordisk, published 2013).

B1: human anti-hIL20 monoclonal antibody 15D2 (antibody, V domains shown)
VH: QVQLVQSGAEVKRPGASVKVSCKASGYTFTNDIIHWVRQAPGQRLEWMGWINAGYGNTQYSQNFQDRVSITRDTSASTAYMELISLRSEDTAVYYCAREPLWFGESSPHDYYGMDVWGQGTTVTVSS
VL: AIQLTQSPSSLSASVGDRVTITCRASQGISSALAWYQQKPGKAPKLLIYDASSLESGVPSRFSGSGSGTDFTLTISSLQPEDFATYYCQQFNSYPLTFGGGTKVEIKR
notes: also called 15D2-wt; 15D2 wild-type
For B1, the binding entry is “binds”.

B2: human anti-hIL20 monoclonal antibody 5B7 (antibody, human IgG4, V domains shown)
VH: B1 VH with T30S, N31S, D32H, I34M, Q59K, S69T, S106L
VL: B1 VL
notes: described as human IgG4; also called 5B7-wt
On to B2, for which the binding result is “binds”.
